The other results are listed elsewhere or left out.

By UniProt entry, the sequences of proteins in these tests, tags left out. Where a name states a change or a piece, a line headed by the entry shows the natural chain unless it says otherwise.
UniProt Q9NTX5: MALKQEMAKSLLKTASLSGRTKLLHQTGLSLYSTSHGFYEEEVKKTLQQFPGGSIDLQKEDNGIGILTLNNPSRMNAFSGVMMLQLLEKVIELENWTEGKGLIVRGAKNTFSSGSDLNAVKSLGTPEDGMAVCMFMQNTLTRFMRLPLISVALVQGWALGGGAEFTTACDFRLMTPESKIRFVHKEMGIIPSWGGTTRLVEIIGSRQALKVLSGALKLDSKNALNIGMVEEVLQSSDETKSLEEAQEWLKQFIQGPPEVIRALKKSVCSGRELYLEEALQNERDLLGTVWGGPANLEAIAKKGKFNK
UniProt Q9BTV6: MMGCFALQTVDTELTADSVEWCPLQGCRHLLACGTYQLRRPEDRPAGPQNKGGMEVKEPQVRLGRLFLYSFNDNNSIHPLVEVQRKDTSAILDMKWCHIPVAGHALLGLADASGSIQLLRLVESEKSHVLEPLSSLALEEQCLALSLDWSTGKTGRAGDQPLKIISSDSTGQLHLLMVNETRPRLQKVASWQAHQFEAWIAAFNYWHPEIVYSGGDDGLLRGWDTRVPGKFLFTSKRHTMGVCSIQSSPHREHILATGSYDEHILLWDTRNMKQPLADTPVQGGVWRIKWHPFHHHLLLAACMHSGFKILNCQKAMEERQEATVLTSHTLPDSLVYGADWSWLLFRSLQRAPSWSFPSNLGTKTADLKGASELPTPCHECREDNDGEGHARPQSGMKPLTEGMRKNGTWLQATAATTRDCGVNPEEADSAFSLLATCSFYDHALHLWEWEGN
UniProt Q5JPH6: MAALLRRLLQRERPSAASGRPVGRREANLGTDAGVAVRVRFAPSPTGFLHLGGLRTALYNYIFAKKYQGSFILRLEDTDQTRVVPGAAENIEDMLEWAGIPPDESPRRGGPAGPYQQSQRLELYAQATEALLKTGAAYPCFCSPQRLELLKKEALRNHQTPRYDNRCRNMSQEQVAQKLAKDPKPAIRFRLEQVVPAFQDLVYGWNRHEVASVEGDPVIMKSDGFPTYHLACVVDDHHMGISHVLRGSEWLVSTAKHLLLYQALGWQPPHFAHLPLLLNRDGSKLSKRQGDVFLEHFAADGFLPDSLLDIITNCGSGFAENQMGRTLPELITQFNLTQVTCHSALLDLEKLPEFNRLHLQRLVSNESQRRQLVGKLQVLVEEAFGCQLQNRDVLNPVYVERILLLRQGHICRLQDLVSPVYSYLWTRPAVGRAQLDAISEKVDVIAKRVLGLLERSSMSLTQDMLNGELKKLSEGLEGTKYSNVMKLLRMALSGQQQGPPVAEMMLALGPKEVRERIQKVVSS
UniProt O60762: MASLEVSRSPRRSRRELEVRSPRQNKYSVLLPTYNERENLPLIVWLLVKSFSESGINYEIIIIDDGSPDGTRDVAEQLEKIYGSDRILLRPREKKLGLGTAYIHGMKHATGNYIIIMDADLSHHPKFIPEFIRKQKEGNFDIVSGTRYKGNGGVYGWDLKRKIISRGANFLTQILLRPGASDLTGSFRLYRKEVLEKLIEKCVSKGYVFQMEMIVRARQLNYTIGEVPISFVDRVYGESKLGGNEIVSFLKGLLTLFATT
UniProt O60869: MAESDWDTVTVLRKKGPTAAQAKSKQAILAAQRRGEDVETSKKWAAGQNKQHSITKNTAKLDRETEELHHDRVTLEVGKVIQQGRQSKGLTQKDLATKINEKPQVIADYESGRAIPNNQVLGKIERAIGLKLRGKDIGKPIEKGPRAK
UniProt Q7Z388: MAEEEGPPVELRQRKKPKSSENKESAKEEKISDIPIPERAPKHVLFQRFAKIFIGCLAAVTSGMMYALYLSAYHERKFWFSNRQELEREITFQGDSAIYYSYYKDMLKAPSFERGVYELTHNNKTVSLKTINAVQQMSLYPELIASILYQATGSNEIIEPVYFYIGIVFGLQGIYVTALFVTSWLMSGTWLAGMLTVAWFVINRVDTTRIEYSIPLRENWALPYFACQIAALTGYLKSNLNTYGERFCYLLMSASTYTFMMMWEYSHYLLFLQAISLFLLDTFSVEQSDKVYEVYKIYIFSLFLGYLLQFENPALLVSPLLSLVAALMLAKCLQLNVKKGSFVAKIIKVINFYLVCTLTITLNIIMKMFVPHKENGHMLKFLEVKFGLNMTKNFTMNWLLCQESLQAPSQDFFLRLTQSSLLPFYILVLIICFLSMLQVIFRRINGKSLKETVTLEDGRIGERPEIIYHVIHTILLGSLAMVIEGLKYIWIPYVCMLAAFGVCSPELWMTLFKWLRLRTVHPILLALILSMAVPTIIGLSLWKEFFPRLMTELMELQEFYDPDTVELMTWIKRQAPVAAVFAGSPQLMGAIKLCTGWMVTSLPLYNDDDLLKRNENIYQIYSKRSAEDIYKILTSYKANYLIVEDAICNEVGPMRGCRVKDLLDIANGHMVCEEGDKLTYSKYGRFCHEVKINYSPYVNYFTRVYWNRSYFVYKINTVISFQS
UniProt Q92611: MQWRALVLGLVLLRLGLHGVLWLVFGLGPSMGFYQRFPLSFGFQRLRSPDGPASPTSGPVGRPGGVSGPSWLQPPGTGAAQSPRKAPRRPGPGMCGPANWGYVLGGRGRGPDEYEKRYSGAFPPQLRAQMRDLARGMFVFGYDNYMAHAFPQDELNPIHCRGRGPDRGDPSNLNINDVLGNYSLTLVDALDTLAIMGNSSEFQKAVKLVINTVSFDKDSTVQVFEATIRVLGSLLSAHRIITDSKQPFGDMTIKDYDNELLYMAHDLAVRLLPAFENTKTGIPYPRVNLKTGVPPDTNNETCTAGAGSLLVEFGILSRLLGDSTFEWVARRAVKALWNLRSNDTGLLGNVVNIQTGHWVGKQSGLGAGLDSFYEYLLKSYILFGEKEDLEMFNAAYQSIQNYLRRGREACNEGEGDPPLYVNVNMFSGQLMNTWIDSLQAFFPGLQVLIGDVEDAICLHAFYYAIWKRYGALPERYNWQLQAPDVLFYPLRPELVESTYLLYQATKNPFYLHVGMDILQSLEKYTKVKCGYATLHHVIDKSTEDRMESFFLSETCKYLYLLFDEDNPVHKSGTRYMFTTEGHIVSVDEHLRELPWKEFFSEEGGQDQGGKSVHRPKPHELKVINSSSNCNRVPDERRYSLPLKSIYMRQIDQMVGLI
UniProt Q9UDY4: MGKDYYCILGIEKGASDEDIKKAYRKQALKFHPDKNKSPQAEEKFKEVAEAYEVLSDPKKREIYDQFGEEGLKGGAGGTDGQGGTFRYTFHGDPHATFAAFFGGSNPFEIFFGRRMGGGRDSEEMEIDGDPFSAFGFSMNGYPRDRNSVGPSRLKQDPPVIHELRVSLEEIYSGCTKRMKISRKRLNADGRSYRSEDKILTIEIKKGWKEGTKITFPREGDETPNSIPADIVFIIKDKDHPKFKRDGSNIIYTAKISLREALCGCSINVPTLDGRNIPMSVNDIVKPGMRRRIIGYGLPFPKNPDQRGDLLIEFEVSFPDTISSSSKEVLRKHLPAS
UniProt Q92785, whole entry, looked up: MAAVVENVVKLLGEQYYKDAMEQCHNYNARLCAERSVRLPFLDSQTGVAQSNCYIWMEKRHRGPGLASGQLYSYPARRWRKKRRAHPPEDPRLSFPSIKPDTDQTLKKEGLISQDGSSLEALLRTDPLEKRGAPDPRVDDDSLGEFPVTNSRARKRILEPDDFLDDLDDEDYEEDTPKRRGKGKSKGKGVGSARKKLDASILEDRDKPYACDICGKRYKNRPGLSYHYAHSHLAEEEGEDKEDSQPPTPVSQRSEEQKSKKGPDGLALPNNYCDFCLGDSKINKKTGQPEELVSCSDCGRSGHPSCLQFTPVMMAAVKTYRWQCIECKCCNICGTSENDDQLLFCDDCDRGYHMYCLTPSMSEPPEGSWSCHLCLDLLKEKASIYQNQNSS
UniProt Q8WWZ3: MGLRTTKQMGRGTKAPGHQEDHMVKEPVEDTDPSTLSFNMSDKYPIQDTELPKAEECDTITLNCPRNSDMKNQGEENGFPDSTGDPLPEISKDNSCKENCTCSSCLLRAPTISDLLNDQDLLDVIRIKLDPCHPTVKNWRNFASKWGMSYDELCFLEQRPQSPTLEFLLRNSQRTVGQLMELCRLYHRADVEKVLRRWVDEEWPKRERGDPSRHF
UniProt O95620: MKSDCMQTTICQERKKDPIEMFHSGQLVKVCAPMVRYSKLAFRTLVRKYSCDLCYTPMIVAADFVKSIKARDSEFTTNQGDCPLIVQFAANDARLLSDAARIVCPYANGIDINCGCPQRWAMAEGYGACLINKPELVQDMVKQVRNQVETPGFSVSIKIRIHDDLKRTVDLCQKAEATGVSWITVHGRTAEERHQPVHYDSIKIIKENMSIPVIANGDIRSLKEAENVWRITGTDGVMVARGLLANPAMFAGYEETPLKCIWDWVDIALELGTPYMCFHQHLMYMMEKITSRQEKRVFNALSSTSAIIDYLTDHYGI
UniProt Q01658: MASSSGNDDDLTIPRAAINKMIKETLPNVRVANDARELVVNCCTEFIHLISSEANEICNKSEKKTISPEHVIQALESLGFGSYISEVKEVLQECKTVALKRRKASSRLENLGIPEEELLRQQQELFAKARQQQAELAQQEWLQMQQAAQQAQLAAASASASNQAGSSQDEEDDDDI
UniProt Q9UNI6, whole entry, looked up: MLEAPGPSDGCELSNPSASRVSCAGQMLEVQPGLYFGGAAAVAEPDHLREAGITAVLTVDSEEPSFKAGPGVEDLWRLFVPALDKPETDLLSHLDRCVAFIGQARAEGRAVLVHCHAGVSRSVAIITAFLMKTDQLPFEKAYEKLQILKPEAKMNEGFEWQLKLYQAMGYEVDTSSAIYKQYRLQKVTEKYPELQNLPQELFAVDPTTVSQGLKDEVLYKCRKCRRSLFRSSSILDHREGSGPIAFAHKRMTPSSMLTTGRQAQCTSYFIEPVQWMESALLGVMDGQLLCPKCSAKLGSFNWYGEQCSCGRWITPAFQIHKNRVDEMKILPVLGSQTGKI
UniProt Q9C005, whole entry, looked up: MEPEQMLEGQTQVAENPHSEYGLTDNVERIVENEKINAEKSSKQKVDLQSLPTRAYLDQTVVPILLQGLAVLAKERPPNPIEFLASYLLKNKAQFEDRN
UniProt P26358: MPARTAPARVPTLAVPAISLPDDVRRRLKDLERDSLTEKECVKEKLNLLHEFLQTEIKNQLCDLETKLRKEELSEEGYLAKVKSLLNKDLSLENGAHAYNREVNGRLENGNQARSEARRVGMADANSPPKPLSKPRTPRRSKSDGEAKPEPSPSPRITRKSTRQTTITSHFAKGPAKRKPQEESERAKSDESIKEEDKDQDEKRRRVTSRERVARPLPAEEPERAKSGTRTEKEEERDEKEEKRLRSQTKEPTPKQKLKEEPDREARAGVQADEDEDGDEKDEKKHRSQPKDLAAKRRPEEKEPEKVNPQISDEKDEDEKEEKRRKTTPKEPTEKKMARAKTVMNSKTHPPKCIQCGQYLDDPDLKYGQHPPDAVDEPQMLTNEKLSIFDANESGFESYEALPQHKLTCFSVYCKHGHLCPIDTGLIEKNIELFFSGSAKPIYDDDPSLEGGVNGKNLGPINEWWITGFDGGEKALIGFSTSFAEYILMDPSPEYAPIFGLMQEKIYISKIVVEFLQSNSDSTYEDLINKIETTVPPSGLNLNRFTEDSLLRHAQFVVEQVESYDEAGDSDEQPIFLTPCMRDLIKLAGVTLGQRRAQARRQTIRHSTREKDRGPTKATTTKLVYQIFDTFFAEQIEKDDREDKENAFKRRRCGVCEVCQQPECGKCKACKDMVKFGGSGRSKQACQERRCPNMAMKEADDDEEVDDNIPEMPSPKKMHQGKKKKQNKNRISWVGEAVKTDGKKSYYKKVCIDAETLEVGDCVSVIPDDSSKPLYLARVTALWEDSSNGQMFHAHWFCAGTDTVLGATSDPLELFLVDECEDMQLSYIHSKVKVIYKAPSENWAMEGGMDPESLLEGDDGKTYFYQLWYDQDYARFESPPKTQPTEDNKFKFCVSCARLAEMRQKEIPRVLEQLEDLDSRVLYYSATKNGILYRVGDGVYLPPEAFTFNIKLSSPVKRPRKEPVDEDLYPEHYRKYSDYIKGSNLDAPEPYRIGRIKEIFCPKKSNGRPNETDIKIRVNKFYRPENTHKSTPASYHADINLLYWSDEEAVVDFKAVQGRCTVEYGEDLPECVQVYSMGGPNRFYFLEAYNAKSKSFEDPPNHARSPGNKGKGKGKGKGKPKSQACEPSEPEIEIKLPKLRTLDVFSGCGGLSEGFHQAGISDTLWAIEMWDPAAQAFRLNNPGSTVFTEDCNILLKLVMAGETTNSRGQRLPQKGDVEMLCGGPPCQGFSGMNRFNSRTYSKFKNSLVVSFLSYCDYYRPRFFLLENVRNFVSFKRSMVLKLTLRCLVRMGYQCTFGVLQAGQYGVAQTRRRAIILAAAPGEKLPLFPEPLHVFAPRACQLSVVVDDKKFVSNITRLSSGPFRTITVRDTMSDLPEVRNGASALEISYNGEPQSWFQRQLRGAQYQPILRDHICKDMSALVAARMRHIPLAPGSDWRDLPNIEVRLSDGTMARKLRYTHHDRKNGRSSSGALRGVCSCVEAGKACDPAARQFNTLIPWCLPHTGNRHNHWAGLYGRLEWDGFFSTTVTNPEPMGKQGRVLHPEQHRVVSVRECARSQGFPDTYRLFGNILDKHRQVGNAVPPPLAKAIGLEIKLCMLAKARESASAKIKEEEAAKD

This is an account of results in the supplement of paper PMC10849652.

Compound in this assay: C1COCCN1CCN2C3=CC=CC=C3N=C2NC(=O)C4=CC(=CC=C4)[N+](=O)[O-] [IRAK-1-4 Inhibitor I]
The assay is described as follows: log2 fold change, soluble protein after heating vs DMSO (PISA); higher = thermal stabilisation; K562 cells, 10 uM, 30 min; active = over 0.2 and 3.5 SD of the protein, either way, in both replicates (recomputed). The gist of the method:
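K562 cells (2×10^6 cells/mL) were treated with 10 μM compound for 30 min, and aliquots were heated for 3 min over 48°C-58°C. Pooled aliquots were extracted in PBS with 0.5% NP-40 at 4°C, and the supernatant after 21,000xg for 90 min was measured by TMTpro 16plex LC-MS/MS with channel sums equalised. Reported thermal stability, relative to control samples and from duplicates, is a log2 fold change.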
Regarding ECHDC1 (UniProt Q9NTX5), the log2 fold change was inactive: 0.043.
For the target DNAJA3 (UniProt Q96EY1), the log2 fold change is inactive: -0.02.
With DPH7 (UniProt Q9BTV6) the figure was inactive: 0.04; with DPM3 isoform 2 (UniProt Q9P2X0), inactive: 0.014.
Under EARS2 isoform 2 (UniProt Q5JPH6) stands inactive: 0.003.
As for DST (UniProt Q03001), the log2 fold change was inactive: -0.016.
On to DPM1 (UniProt O60762), for which the log2 fold change was inactive: 0.041.
Take ECE1 (UniProt P42892): the log2 fold change is inactive: 0.057.
Turning to EDF1 (UniProt O60869), the log2 fold change was inactive: 0.009.
Take DPY19L4 (UniProt Q7Z388): the log2 fold change is inactive: 0.137.
For DNAJB6 (UniProt O75190), the log2 fold change was inactive: 0.042.
In the case of EDEM1 (UniProt Q92611), the log2 fold change is inactive: -0.03.
Under DNAJB4 (UniProt Q9UDY4) stands inactive: 0.003.
Turning to EBP (UniProt Q15125), the log2 fold change was inactive: -0.072.
Under DUT (UniProt P33316) stands inactive: 0.029.
Regarding DPF2 (UniProt Q92785), the log2 fold change is inactive: -0.041.
Under EDARADD (UniProt Q8WWZ3) stands inactive: 0.024; under DUS4L (UniProt O95620), inactive: 0.042; under DR1 (UniProt Q01658), inactive: -0.005.
As to DUSP12 (UniProt Q9UNI6), the log2 fold change is inactive: -0.049.
For EAF1 (UniProt Q96JC9), the log2 fold change is inactive: -0.009.
Turning to DPH1 (UniProt Q9BZG8), the log2 fold change was inactive: 0.029.
For the target DPY30 (UniProt Q9C005), the log2 fold change was inactive: 0.09.
Under DNMT1 isoform 2 (UniProt P26358) stands inactive: 0.014.
